Laboratory results as given in the supplement of paper PMC6411743.
± gives the standard deviation of the averaged measurements. This is a selection; strong and weak results do not stand in their true shares. Most values lie at the level of the controls, where differences are scatter.

Amino acid sequences for entries named in this document (tags omitted). A change or cut given only in a name is not applied to a line headed by its entry.
UniProt Q8TCD5: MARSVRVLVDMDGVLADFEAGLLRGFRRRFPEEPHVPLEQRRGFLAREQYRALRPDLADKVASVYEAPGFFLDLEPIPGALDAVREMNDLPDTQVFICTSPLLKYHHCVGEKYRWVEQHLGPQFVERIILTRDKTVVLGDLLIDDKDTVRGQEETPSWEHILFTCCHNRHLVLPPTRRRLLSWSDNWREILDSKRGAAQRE
UniProt Q969Z0: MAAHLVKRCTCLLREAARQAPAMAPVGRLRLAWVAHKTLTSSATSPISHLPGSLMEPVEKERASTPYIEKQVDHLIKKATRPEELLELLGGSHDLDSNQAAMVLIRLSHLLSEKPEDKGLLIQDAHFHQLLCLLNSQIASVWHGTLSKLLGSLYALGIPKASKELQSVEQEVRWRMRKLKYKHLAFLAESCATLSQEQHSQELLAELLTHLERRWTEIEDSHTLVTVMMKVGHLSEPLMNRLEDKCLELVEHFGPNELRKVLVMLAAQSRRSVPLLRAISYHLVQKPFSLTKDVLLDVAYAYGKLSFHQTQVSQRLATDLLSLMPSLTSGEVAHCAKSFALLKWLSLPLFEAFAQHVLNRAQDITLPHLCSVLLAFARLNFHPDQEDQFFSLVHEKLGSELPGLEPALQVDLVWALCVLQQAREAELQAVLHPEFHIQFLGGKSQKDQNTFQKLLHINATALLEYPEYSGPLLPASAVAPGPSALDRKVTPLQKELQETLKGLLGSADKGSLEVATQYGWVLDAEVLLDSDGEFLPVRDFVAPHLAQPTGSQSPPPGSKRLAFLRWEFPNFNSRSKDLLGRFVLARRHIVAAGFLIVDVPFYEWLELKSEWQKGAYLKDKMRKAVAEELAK
UniProt Q8TDZ2: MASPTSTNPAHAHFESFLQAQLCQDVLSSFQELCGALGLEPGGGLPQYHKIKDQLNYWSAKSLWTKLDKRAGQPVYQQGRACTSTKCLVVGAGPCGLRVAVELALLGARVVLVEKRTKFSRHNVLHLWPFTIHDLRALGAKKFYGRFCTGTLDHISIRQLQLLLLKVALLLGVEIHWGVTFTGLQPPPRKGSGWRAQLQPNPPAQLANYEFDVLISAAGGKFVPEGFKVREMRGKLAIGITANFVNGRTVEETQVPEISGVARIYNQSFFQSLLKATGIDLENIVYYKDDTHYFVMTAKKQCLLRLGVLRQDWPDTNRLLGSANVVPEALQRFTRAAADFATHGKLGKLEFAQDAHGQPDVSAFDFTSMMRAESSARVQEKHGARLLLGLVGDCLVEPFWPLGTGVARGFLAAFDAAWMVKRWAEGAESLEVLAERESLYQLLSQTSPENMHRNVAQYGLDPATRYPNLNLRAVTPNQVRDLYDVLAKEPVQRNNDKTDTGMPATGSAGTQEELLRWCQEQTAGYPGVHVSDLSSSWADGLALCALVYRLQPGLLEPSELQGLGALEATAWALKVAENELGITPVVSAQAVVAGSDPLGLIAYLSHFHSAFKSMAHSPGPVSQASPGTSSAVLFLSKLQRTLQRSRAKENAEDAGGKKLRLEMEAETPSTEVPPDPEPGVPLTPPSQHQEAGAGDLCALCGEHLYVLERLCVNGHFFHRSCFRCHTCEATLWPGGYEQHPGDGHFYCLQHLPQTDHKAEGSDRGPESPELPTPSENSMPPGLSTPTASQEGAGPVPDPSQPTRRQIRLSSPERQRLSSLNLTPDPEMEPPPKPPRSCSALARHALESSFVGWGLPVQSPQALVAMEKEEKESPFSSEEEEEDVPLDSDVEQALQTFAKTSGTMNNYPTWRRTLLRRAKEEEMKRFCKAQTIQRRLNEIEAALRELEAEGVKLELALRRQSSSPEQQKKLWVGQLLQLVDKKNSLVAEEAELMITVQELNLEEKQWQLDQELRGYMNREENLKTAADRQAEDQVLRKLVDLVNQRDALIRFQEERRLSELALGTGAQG
UniProt Q96B01: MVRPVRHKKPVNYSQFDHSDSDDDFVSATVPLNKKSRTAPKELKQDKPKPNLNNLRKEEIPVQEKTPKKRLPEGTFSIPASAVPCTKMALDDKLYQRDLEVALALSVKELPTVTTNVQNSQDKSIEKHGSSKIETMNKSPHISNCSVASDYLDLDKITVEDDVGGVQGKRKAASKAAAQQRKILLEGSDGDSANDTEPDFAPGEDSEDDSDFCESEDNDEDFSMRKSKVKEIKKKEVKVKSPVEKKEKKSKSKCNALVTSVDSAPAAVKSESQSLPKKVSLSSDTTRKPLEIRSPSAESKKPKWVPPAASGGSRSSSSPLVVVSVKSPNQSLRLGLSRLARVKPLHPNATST
UniProt Q8WUY8: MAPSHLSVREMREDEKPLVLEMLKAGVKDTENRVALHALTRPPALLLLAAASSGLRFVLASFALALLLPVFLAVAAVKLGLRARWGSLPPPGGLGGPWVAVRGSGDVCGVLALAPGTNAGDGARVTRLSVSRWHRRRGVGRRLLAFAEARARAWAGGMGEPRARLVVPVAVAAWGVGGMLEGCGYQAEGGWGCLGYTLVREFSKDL
UniProt Q8TEV9: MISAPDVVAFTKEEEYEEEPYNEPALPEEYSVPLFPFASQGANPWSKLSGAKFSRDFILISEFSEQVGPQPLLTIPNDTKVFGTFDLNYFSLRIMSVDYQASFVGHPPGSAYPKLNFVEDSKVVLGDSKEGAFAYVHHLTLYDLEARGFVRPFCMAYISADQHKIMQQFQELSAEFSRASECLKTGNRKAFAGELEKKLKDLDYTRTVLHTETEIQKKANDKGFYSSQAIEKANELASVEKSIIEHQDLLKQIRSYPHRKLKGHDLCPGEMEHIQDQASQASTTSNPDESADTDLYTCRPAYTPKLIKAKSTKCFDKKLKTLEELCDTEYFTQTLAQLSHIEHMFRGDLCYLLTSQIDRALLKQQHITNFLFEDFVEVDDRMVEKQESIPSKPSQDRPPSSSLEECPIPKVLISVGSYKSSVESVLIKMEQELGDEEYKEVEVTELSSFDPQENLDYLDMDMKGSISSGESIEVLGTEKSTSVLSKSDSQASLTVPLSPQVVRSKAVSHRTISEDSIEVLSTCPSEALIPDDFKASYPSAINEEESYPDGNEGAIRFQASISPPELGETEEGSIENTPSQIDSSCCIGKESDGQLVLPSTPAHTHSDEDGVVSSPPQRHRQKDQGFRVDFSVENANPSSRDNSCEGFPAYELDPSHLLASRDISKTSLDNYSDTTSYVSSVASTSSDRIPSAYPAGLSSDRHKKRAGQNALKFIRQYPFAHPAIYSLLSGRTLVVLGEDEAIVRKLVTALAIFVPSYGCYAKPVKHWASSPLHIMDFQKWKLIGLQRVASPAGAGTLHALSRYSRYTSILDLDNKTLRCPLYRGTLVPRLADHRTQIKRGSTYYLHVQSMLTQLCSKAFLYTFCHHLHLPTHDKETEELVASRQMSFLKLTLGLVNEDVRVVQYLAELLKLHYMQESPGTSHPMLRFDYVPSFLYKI
UniProt Q8WV74: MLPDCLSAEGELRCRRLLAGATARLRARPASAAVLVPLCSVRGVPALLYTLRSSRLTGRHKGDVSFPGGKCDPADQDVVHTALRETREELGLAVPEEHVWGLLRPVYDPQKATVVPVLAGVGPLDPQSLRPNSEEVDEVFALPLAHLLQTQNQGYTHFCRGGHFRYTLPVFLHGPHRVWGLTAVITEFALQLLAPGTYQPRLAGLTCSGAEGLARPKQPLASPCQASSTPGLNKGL
UniProt Q969M3: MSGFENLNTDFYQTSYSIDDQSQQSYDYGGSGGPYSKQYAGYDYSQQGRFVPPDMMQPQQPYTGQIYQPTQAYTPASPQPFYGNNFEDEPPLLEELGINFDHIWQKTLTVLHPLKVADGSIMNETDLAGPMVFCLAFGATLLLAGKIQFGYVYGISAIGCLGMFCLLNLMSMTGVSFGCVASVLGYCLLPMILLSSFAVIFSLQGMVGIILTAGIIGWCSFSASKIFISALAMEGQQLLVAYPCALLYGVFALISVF
UniProt Q8WU79: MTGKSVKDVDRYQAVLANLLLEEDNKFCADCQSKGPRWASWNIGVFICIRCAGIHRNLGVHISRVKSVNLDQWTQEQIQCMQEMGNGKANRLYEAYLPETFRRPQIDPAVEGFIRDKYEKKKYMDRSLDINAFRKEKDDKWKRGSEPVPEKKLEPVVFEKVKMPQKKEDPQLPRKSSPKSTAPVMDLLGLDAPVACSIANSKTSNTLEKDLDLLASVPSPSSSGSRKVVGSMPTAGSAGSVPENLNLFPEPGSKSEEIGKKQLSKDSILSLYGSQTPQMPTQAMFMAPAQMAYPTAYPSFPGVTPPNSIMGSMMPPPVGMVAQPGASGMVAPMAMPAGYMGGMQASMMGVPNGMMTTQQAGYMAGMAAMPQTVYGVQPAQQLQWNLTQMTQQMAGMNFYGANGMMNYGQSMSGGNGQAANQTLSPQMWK
UniProt Q969U7: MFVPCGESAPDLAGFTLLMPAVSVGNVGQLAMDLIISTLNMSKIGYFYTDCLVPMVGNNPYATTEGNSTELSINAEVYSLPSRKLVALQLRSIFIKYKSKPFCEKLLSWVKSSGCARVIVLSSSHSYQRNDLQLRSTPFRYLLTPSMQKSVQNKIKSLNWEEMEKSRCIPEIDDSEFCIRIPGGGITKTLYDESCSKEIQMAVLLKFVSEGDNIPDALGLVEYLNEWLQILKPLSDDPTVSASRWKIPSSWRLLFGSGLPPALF
UniProt Q92833: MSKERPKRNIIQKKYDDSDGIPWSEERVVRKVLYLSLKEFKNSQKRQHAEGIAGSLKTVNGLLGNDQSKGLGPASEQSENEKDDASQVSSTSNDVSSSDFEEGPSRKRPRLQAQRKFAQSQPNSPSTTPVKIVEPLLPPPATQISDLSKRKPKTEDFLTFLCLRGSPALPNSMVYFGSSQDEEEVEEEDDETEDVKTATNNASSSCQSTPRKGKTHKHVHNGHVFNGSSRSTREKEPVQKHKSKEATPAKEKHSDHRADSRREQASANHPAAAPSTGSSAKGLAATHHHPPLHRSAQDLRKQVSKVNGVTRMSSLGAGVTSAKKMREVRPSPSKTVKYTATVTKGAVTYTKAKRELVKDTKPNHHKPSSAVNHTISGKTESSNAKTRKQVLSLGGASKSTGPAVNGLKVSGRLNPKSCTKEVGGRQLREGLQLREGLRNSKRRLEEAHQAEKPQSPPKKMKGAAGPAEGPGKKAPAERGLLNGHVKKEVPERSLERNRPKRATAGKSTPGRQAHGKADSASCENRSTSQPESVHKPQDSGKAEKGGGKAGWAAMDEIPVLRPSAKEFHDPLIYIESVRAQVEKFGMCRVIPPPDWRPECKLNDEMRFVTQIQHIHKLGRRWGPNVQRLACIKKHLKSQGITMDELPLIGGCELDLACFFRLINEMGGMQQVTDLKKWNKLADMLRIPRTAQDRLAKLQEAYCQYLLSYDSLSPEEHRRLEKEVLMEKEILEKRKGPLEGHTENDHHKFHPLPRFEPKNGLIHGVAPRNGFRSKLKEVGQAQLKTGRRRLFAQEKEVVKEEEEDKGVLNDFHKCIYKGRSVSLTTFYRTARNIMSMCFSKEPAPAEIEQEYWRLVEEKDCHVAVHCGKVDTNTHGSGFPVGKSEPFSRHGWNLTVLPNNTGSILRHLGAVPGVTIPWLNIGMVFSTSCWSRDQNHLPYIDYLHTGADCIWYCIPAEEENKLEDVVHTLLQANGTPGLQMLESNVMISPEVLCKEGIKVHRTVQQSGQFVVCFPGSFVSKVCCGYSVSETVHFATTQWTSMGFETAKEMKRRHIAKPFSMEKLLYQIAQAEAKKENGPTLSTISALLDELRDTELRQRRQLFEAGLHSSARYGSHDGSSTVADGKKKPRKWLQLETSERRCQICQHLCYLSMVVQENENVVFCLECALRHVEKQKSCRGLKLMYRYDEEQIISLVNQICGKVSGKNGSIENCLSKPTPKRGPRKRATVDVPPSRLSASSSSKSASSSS
UniProt Q8TEB1, whole entry: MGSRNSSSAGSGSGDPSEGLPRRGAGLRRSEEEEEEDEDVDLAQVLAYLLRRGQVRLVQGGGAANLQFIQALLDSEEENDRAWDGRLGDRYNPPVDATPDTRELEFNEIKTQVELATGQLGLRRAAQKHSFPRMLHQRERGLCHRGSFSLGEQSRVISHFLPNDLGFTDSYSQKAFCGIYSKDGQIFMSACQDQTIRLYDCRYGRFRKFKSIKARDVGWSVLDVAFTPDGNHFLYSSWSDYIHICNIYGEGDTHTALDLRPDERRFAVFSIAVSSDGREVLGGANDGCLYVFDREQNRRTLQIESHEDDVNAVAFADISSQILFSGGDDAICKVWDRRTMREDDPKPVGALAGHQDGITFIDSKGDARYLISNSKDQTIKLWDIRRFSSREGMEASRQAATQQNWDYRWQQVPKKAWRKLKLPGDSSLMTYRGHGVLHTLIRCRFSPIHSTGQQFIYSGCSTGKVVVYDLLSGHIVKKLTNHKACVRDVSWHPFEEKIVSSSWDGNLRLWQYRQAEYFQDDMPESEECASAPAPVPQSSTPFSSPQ

Compound: Nc1ncnc2c1ncn2[C@@H]1O[C@H](COP(=O)(O)OP(=O)(O)OP(=O)(O)O)[C@@H](O)[C@H]1O [adenosine triphosphate]
Assay: NP40-soluble protein abundance relative to vehicle (solubility fold change) (ratio); higher = more soluble protein in presence of ATP
Procedure, shortened: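 Across three independent experiments, values are fold changes against the detergent-processed vehicle for each replicate, based on vsn-normalised intensities. The samples were Jurkat crude lysate treated with eight concentrations (0.1 to 10 mM) for 10 min at room temperature and then 3 min at 37 °C. Lysate was solubilised with 0.8% NP40 and benzonase, ultracentrifuged, and the supernatant analysed by TMT-labelled LC-MS/MS.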

Target	NP40-soluble protein abundance (concentration: 0.1mM)	NP40-soluble protein abundance (concentration: 0.5mM)	NP40-soluble protein abundance (concentration: 1mM)	NP40-soluble protein abundance (concentration: 2mM)	NP40-soluble protein abundance (concentration: 4mM)	NP40-soluble protein abundance (concentration: 6mM)	NP40-soluble protein abundance (concentration: 8mM)	NP40-soluble protein abundance (concentration: 10mM)
ELMO1 (UniProt Q92556)	1.02 ± 0.05	1.06 ± 0.041	1.05 ± 0.05	1.04 ± 0.043	1.02 ± 0.036	1 ± 0.067	1.04 ± 0.038	1.05 ± 0.05
UniProt Q8TCD5 and related entries	1.02 ± 0.033	0.981 ± 0.081	1 ± 0.021	1.02 ± 0.04	1.01 ± 0.057	0.942 ± 0.15	1.01 ± 0.11	0.954 ± 0.091
HSD17B8 (UniProt Q92506)	0.98 ± 0.034	0.994 ± 0.049	–	–	–	–	–	–
TBRG4 (UniProt Q969Z0)	0.995 ± 0.045	1.02 ± 0.048	0.981 ± 0.047	0.957 ± 0.015	0.928 ± 0.026	0.962 ± 0.069	0.955 ± 0.022	0.948 ± 0.015
UniProt Q8TDZ2 and related entries	1.02 ± 0.064	0.982 ± 0.027	–	–	–	–	–	–
UniProt Q96B01 and related entries	0.95 ± 0.064	0.991 ± 0.075	–	–	–	–	–	–
UniProt Q8WUY8 and related entries	1.08 ± 0.045	0.958 ± 0.18	1.02 ± 0.085	1.049 ± 0.0036	1.13 ± 0.032	0.966 ± 0.052	1.03 ± 0.067	1.08 ± 0.013
SMCR8 (UniProt Q8TEV9)	1.03 ± 0.035	1.01 ± 0.042	–	–	–	–	–	–
NUDT8 (UniProt Q8WV74)	0.978 ± 0.082	0.923 ± 0.066	–	–	–	–	–	–
UniProt Q92796-2|Q92796-3	0.991 ± 0.025	1.03 ± 0.064	–	–	–	–	–	–
RPGR (UniProt Q92834)	1.04 ± 0.045	1.08 ± 0.07	1.03 ± 0.099	1.08 ± 0.039	1.05 ± 0.036	1.07 ± 0.067	1.067 ± 0.0066	1.05 ± 0.013
GTF2H4 (UniProt Q92759)	1.03 ± 0.057	1.19 ± 0.11	1.08 ± 0.072	1.04 ± 0.035	1.09 ± 0.059	0.975 ± 0.13	1.16 ± 0.069	1.12 ± 0.036
UniProt Q969M3 and related entries	0.969 ± 0.15	0.94 ± 0.15	0.981 ± 0.16	0.97 ± 0.19	0.974 ± 0.22	0.987 ± 0.24	0.961 ± 0.19	0.996 ± 0.19
UniProt Q92576 and related entries	1 ± 0.03	1.04 ± 0.055	1.05 ± 0.052	1.07 ± 0.056	1.12 ± 0.051	1.22 ± 0.11	1.2 ± 0.048	1.24 ± 0.073
UniProt Q96B36 and related entries	0.856 ± 0.11	0.773 ± 0.11	0.861 ± 0.098	0.826 ± 0.085	0.765 ± 0.029	0.826 ± 0.091	0.747 ± 0.071	0.693 ± 0.12
UniProt Q96AQ6 and related entries	0.997 ± 0.011	0.975 ± 0.033	0.939 ± 0.053	0.927 ± 0.024	0.924 ± 0.028	0.953 ± 0.017	0.895 ± 0.01	0.9264 ± 0.0053
UniProt Q8WU79 and related entries	0.923 ± 0.041	0.946 ± 0.053	0.891 ± 0.067	0.924 ± 0.024	0.869 ± 0.011	0.975 ± 0.047	0.839 ± 0.017	0.872 ± 0.032
UniProt Q969U7 and related entries	1.03 ± 0.067	1.04 ± 0.04	1.02 ± 0.072	1.01 ± 0.012	0.965 ± 0.055	0.983 ± 0.029	0.978 ± 0.072	0.986 ± 0.081
UniProt Q92851-4	1.22 ± 0.28	1.01 ± 0.088	–	–	–	–	–	–
UniProt Q92833 and related entries	1.11 ± 0.16	1.09 ± 0.22	1.33 ± 0.27	1.32 ± 0.34	1.48 ± 0.51	1.49 ± 0.48	1.59 ± 0.63	1.76 ± 0.69
UniProt Q8TEB1 and related entries	0.995 ± 0.098	1.01 ± 0.075	0.948 ± 0.093	0.977 ± 0.06	0.961 ± 0.079	0.956 ± 0.054	0.942 ± 0.066	0.918 ± 0.078
PNPLA2 (UniProt Q96AD5)	1.1 ± 0.11	1.03 ± 0.034	1.04 ± 0.047	1 ± 0.069	1.02 ± 0.064	0.927 ± 0.12	0.994 ± 0.062	1.06 ± 0.1
MRPS31 (UniProt Q92665)	0.933 ± 0.094	0.966 ± 0.075	0.994 ± 0.058	0.93 ± 0.066	0.871 ± 0.062	0.923 ± 0.14	0.865 ± 0.088	0.857 ± 0.073

A different layout for some results above:
Target,NP40-soluble protein abundance (concentration: 0.1mM),NP40-soluble protein abundance (concentration: 0.5mM),NP40-soluble protein abundance (concentration: 1mM),NP40-soluble protein abundance (concentration: 2mM),NP40-soluble protein abundance (concentration: 4mM),NP40-soluble protein abundance (concentration: 6mM),NP40-soluble protein abundance (concentration: 8mM),NP40-soluble protein abundance (concentration: 10mM)
UniProt Q8TCD5 and related entries,1.02 ± 0.033,0.981 ± 0.081,1 ± 0.021,1.02 ± 0.04,1.01 ± 0.057,0.942 ± 0.15,1.01 ± 0.11,0.954 ± 0.091
HSD17B8 (UniProt Q92506),0.98 ± 0.034,0.994 ± 0.049,–,–,–,–,–,–
